Source: PubChem BioAssay AID1487 (National Center for Advancing Translational Sciences (NCATS), 2009)
This is one part of the list. These are further read-outs of the screen, such as a control signal, another cell line or another target. No call is given for them. The list favours compounds with an active or inconclusive main result. Potencies come from curve fits of mixed quality, noted in brackets.

Assay: qHTS Assay for Modulators of Lamin A Splicing
Details: HeLa LMNA splicing GFP/RFP minigene ratio, 48 h
Method in brief: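 Read-out is the ratio of GFP to DsRed2 object intensity, acquired by 488 nm laser-scanning cytometry on HeLa lamin A-EGFP minigene reporter cells. Compound incubation 48 hrs at 37 °C in Opti-MEM with 2% FBS; DMSO 0.5% final.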

[1] = measured here: GFP splicing reporter channel
[2] = measured here: RFP viability control channel

| SMILES | AC50 [1] | AC50 [2] |
| --- | --- | --- |
| CC(C)c1ccc2oc(-c3cc(N)ccc3O)nc2c1 | 15.8 µM [rising, single point] | 17.8 µM [rising, partial curve] |
| CCC(CO)NCC(O)COCc1ccc2c(c1)OCO2 (stereo not drawn) | 7.94 µM [rising, partial curve, poor fit] |  |
| CC(C)(C)C1CCc2[nH]c3ccccc3c(=O)c2C1 (stereo not drawn) | 10 µM [rising, single point] |  |
| O=C(Nc1ccccc1F)C1(c2ccccc2)CC1(Cl)Cl (stereo not drawn) | 4.47 µM [rising, partial curve] |  |
| Cc1ccc(C(=O)N/N=C(/CC(=O)c2cccs2)C(F)(F)F)cc1 |  | 12.6 µM [rising, partial curve] |
| CCc1cccc(NC(=O)Cc2ccc(OC)c(OC)c2)c1 | 3.16 µM [rising, full curve, poor fit] | 5.01 µM [rising, full curve] |
| COc1cc(OC)cc(-c2nc3ccccc3c(=O)n2OC(=O)c2ccc(Br)cc2)c1 |  | 0.0891 µM [rising, partial curve, poor fit] |
| COC(=O)CCCC1=CC2=C(c3ccccc3)C(=O)C(C)(OC(=O)C3CCCC3)C(=O)C2=CN1CCc1ccccn1 (stereo not drawn) | 0.158 µM [falling, full curve, poor fit] |  |
| O=C(c1ccccc1)N1CCN(Cc2c[nH]c3ccccc23)CC1 |  | 11.2 µM [rising, single point] |
| CCn1c2ccccc2c2cc(NC(=O)c3cccc([N+](=O)[O-])c3C)ccc21 |  | 14.1 µM [rising, single point] |
| CC(=O)/C(=N/Nc1cccc(C)c1)N1CCOCC1 |  | 35.5 µM [rising, single point] |
| CCOC(=O)N1CCN(C(=O)CSc2ccc3nnc(-c4cccnc4)n3n2)CC1 |  | 0.0447 µM [rising, full curve] |
| O=C(c1ccc2c(c1)OCO2)C1CCCN(Cc2cc(F)ccc2-n2cccn2)C1 (stereo not drawn) | 17.8 µM [falling, partial curve] |  |
| O=Nc1c(O)n(Cc2c(Cl)cccc2Cl)c2ccccc12 | 12.6 µM [rising, single point] | 20 µM [rising, single point] |
| CCCSC1=N/C(=C\C=C\c2ccco2)C(=O)S1 | 0.562 µM [falling, single point] | 0.501 µM [falling, partial curve, poor fit] |
| Cc1ccc(NS(=O)(=O)c2ccc(Cl)s2)cc1S(=O)(=O)N(C)C | 12.6 µM [rising, partial curve, poor fit] | 15.8 µM [rising, partial curve] |
| CCOc1ccccc1NC(=O)C1=C(C)NC(=O)NC1c1cccs1 (stereo not drawn) |  | 22.4 µM [falling, single point] |
| Cc1cccc(NCc2ccccc2OCc2ccccc2F)c1 |  | 31.6 µM [rising, single point] |
| COc1ccc(C(NC(C)=O)c2ccc3cccnc3c2O)c(OC)c1 (stereo not drawn) | 7.08 µM [rising, partial curve] | 7.94 µM [rising, partial curve] |

| SMILES | AC50 [1] | AC50 [2] |
| --- | --- | --- |
| CC1(C)CC(=O)NC=C(c2ccccc2)C1 |  | 14.1 µM [rising, single point] |
| O=C(COC(=O)CCC(=O)c1ccc(F)cc1)Nc1ccc(F)cc1F |  | 7.08 µM [rising, full curve] |
| O=C(C1COc2ccccc2O1)N1CCN(c2ccccc2Cl)CC1 (stereo not drawn) | 0.794 µM [rising, full curve, poor fit] |  |
| CN(Cc1ccccc1)c1ncnc(N)c1[N+](=O)[O-] |  | 28.2 µM [falling, partial curve] |
| O=C(Nc1nccs1)c1ccc(Cl)c(S(=O)(=O)N2CCOCC2)c1 | 35.5 µM [rising, single point] | 31.6 µM [rising, single point] |
| CCc1c(C)nc2ncnn2c1N1CCC(C(=O)NCc2cccc(OC)c2)CC1 |  | 15.8 µM [rising, single point] |
| Cc1ccc(S(=O)(=O)N2CCCc3cc(NS(=O)(=O)c4ccc(F)cc4)ccc32)cc1 |  | 25.1 µM [rising, partial curve, poor fit] |
| CCCOc1ccc(/C(CC)=N/NC(=O)C2(C)CC2(Br)Br)cc1 (stereo not drawn) | 17.8 µM [rising, partial curve] | 6.31 µM [rising, partial curve] |
| CCC(=O)C1=C(c2ccccc2)N(C(=O)CC)n2c(nnc2-c2ccccc2)S1 |  | 7.08 µM [rising, partial curve, poor fit] |
| CN=C(Nc1ccc(Br)cc1)SC1CC(=O)N(c2ccc(OC)cc2)C1=O (stereo not drawn) | 25.1 µM [rising, single point] | 25.1 µM [rising, single point] |
| Cc1ccc(C)c2c1cc(C)c1nnc(SCC(=O)Nc3nc4c(s3)CCCC4)n12 |  | 20 µM [rising, partial curve] |
| Cc1cccc2cc(CN(Cc3ccco3)C(c3nnnn3CCc3ccccc3)C(C)C)c(=O)[nH]c12 (stereo not drawn) |  | 6.31 µM [rising, partial curve] |
| COc1ccc(NC(=O)CSc2nnc(-c3ccccc3C)n2N)cc1 |  | 2.51 µM [falling, partial curve, poor fit] |
| C/C(N)=C(/C#N)C(=O)CSc1nc2cc(Cl)ccc2s1 |  | 12.6 µM [rising, single point] |
| CC(=O)Nc1ccccc1C(=O)C(=O)Nc1ccc(C)c(F)c1 |  | 35.5 µM [rising, single point] |
| CCCCc1nc2c(c3c1C[C@H](C)OC3)CN(C(=O)c1ccco1)CC2 | 0.00141 µM [rising, full curve, poor fit] | 0.891 µM [rising, partial curve, poor fit] |
| O=S(=O)(/C=C/c1ccccc1)N1CCN(c2nc(-c3ccccc3)nc3ccccc23)CC1 | 0.00501 µM [falling, full curve, poor fit] | 0.00501 µM [falling, full curve, poor fit] |
| O=S(=O)(CCc1nc2ccccc2[nH]1)c1ccc(Cl)cc1 |  | 31.6 µM [rising, single point] |

Random excerpt: 2 records from the list, in no set order.

| SMILES | AC50 [1] | AC50 [2] |
| --- | --- | --- |
| CCC(=O)C1=C(c2ccccc2)N(C(=O)CC)n2c(nnc2-c2ccccc2)S1 |  | 7.08 µM [rising, partial curve, poor fit] |
| COc1ccc(NC(=O)CSc2nnc(-c3ccccc3C)n2N)cc1 |  | 2.51 µM [falling, partial curve, poor fit] |
